Source: the supplement of paper PMC6078165
The reference is the same well before dosing, and untreated signal decays as well.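 Labels refer to human fibroblasts, largely primary: uterine (C12385, HUF), lung (H6013), bone (Hs27A), adrenal (HADF), skin (WS1), plus mammary HMF and breast cancer-associated Hs343T. Cancer lines are basal-like or mesenchymal-like triple-negative breast cancer. The paper counts as hits responses shifting over 3x the replicate standard deviation. The tissue of the other fibroblasts is not given here.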

Test system: MDAMB231
Assay: relative JC-1 red fluorescence (viability) vs pre-drug, coculture with fibroblast (fraction); higher = more viable cancer cells
Method: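 JC-1 labelled TNBC cells cocultured 1:1 (1,500 cells each) with CellTrace Violet stained primary or stromal fibroblasts in 384-well plates in FluoroBrite medium, treated with one of 42 anticancer drugs at 0.1, 1, 10 or 100 uM. JC-1 red fluorescence (mitochondrial integrity in cancer cells only) was read by plate reader every 8 h for 72 h. Values are normalised to each well's pre-drug value. The stock of one drug was tenfold lower, so its dose labels may be too high.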

CC(=O)O[C@H]1C(=O)[C@@]2(C)[C@H]([C@H](OC(=O)c3ccccc3)[C@]3(O)C[C@H](OC(=O)[C@H](O)[C@@H](NC(=O)c4ccccc4)c4ccccc4)C(C)=C1C3(C)C)[C@]1(OC(C)=O)CO[C@@H]1C[C@@H]2O [Paclitaxel]
relative JC-1 red fluorescence
Conditions	8 h	16 h	24 h	32 h	40 h	48 h	56 h	64 h	72 h
0.1 µM, coculture fibroblast: C12385	0.792	0.727	0.6691	0.5968	0.5324	0.5157	0.487	0.493	0.496
0.1 µM, coculture fibroblast: H6013	0.902	0.815	0.7519	0.712	0.641	0.622	0.591	0.577	0.543
0.1 µM, coculture fibroblast: H6019	0.7599	0.628	0.613	0.543	0.504	0.508	0.484	0.4984	0.489
0.1 µM, coculture fibroblast: H6076	0.856	0.7461	0.67	0.645	0.608	0.586	0.578	0.575	0.595
0.1 µM, coculture fibroblast: H6231	0.93114	0.85	0.729	0.664	0.6	0.572	0.537	0.535	0.508
0.1 µM, coculture fibroblast: HADF	0.9002	0.873	0.774	0.7205	0.656	0.636	0.605	0.59	0.541
0.1 µM, coculture fibroblast: HCFa	0.9027	0.8221	0.76	0.701	0.625	0.578	0.539	0.503	0.453
0.1 µM, coculture fibroblast: HCPF	0.893	0.796	0.7016	0.686	0.64	0.607	0.569	0.5587	0.5507
0.1 µM, coculture fibroblast: HHSteC	0.92845	0.863	0.821	0.763	0.72	0.71	0.678	0.661	0.621
0.1 µM, coculture fibroblast: HMF	0.902	0.804	0.712	0.667	0.609	0.559	0.506	0.49	0.482
0.1 µM, coculture fibroblast: HPFa	0.9546	0.8839	0.819	0.7339	0.699	0.667	0.609	0.581	0.536
0.1 µM, coculture fibroblast: HUF	0.8514	0.708	0.716	0.593	0.543	0.528	0.49	0.498	0.491
0.1 µM, coculture fibroblast: Hs5	0.848	0.76029	0.716	0.681	0.659	0.613	0.589	0.586	0.577
0.1 µM, coculture fibroblast: Hs27A	0.8833	0.8379	0.7774	0.7349	0.693	0.647	0.65	0.628	0.598
0.1 µM, coculture fibroblast: Hs343T	0.843	0.724	0.624	0.584	0.541	0.501	0.459	0.456	0.446
0.1 µM, coculture fibroblast: WS1	0.78	0.672	0.62	0.554	0.496	0.48	0.44	0.451	0.444
1 µM, coculture fibroblast: C12385	0.7681	0.692	0.684	0.607	0.534	0.5235	0.491	0.514	0.515
1 µM, coculture fibroblast: H6013	0.9083	0.831	0.796	0.74	0.688	0.691	0.671	0.657	0.631
1 µM, coculture fibroblast: H6019	0.767	0.681	0.672	0.614	0.579	0.58	0.56	0.578	0.569
1 µM, coculture fibroblast: H6076	0.818	0.732	0.693	0.667	0.629	0.6069	0.619	0.627	0.646
1 µM, coculture fibroblast: H6231	0.9467	0.895	0.8068	0.768	0.703	0.673	0.63	0.618	0.59
1 µM, coculture fibroblast: HADF	0.882	0.8218	0.7806	0.73	0.673	0.642	0.609	0.612	0.579
1 µM, coculture fibroblast: HCFa	0.8934	0.8156	0.7709	0.712	0.644	0.609	0.571	0.542	0.502
1 µM, coculture fibroblast: HCPF	0.846	0.726	0.67	0.641	0.5713	0.5389	0.515	0.498	0.492
1 µM, coculture fibroblast: HHSteC	0.917	0.872	0.8196	0.752	0.696	0.675	0.631	0.617	0.582
1 µM, coculture fibroblast: HMF	0.894	0.787	0.722	0.67	0.606	0.572	0.543	0.521	0.503
1 µM, coculture fibroblast: HPFa	0.935	0.8831	0.816	0.726	0.7025	0.676	0.627	0.601	0.547
1 µM, coculture fibroblast: HUF	0.8662	0.744	0.748	0.627	0.56	0.55	0.513	0.512	0.492
1 µM, coculture fibroblast: Hs5	0.87	0.829	0.81	0.767	0.735	0.683	0.678	0.668	0.657
1 µM, coculture fibroblast: Hs27A	0.8882	0.8427	0.7919	0.762	0.708	0.67	0.666	0.656	0.634
1 µM, coculture fibroblast: Hs343T	0.844	0.702	0.644	0.601	0.542	0.492	0.4485	0.441	0.428
1 µM, coculture fibroblast: WS1	0.77	0.681	0.641	0.558	0.53	0.51	0.485	0.493	0.487
10 µM, coculture fibroblast: C12385	0.817	0.7702	0.756	0.696	0.6406	0.6325	0.6013	0.6194	0.622
10 µM, coculture fibroblast: H6013	0.923	0.868	0.81	0.768	0.712	0.704	0.686	0.671	0.642
10 µM, coculture fibroblast: H6019	0.794	0.71	0.657	0.62	0.594	0.594	0.573	0.59	0.565
10 µM, coculture fibroblast: H6076	0.911	0.909	0.841	0.862	0.821	0.797	0.798	0.787	0.793
10 µM, coculture fibroblast: H6231	0.962	0.902	0.815	0.7531	0.685	0.644	0.589	0.571	0.535
10 µM, coculture fibroblast: HADF	0.92	0.879	0.8169	0.774	0.73	0.721	0.679	0.666	0.639
10 µM, coculture fibroblast: HCFa	0.919	0.861	0.811	0.758	0.689	0.649	0.608	0.58	0.546
10 µM, coculture fibroblast: HCPF	0.9178	0.8239	0.72	0.692	0.62	0.586	0.537	0.521	0.503
10 µM, coculture fibroblast: HHSteC	0.944	0.8891	0.835	0.7812	0.7295	0.7187	0.67468	0.6791	0.639
10 µM, coculture fibroblast: HMF	0.9807	0.8995	0.774	0.72	0.66	0.622	0.566	0.538	0.518
10 µM, coculture fibroblast: HPFa	0.9799	0.95587	0.8846	0.812	0.776	0.738	0.696	0.672	0.633
10 µM, coculture fibroblast: HUF	0.889	0.7842	0.796	0.6783	0.6154	0.601	0.571	0.578	0.582
10 µM, coculture fibroblast: Hs5	0.958	0.861	0.786	0.737	0.681	0.627	0.594	0.582	0.578
10 µM, coculture fibroblast: Hs27A	0.9184	0.888	0.85	0.817	0.771	0.738	0.74	0.733	0.701
10 µM, coculture fibroblast: Hs343T	0.922	0.826	0.718	0.6748	0.609	0.565	0.52	0.501	0.483
10 µM, coculture fibroblast: WS1	0.8057	0.7318	0.6615	0.603	0.557	0.535	0.493	0.492	0.479
